PubChem BioAssay AID1671195 – Yale University, 2021
The deposit covers about 22,000 reagents; this is a random part of them. In the full data, about 1,510 (6.9%) got an active call. 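Active includes knockdowns raising or lowering LDL uptake; positive z-scores mean more uptake, negative mean less.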 A number with no mark means an inactive call.

Purpose: 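Genes whose knockdown alters LDL uptake in liver cancer cells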 (primary screen)
Cell system: human Huh7 hepatoma cells
Reagent: siRNA pool against human genes, 18 nM
Timing: about 2 to 2.5 days of knockdown, then 8 h LDL uptake
Treatment: DiI-labelled LDL at 30 µg/ml for 8 h, in lipoprotein-deficient serum medium
Measured: 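Per-cell DiI-LDL intensity by automated imaging; well means scaled to the plate median and given as a robust z-score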
Direction: robust z-score: higher = more LDL uptake after knockdown
Rule for the call: 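a gene counts as active if at least two replicate z-scores exceed ±2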

Silencing of WT1 (WT1 transcription factor) resulted in: robust z-score, replicate 1 = -0.0643; robust z-score, replicate 2 = -0.232; robust z-score, replicate 3 = -0.423. Against PRR25 (proline rich 25), the entry reads robust z-score, replicate 1 = 1.89 (active); robust z-score, replicate 2 = 2.01; robust z-score, replicate 3 = 2.32. LOC389162 (retired record) scored robust z-score, replicate 1 = 2.54; robust z-score, replicate 2 = 1.61; robust z-score, replicate 3 = 1.63. Depletion of MINDY3 (MINDY lysine 48 deubiquitinase 3) gave: robust z-score, replicate 1 = -0.155; robust z-score, replicate 2 = -0.342; robust z-score, replicate 3 = -0.347. PDPR2P gave robust z-score, replicate 1 = 2.19 (active); robust z-score, replicate 2 = 2.17; robust z-score, replicate 3 = 2.33. Knock-down of SPINK4 (serine peptidase inhibitor Kazal type 4) came out at: robust z-score, replicate 1 = 0.223; robust z-score, replicate 2 = -0.451; robust z-score, replicate 3 = -0.287.

Against OR4K14 (olfactory receptor family 4 subfamily K member 14) the deposit lists robust z-score, replicate 1 = -0.754; robust z-score, replicate 2 = -0.691; robust z-score, replicate 3 = -0.948. Knock-down of LILRP2 (leukocyte immunoglobulin-like receptor pseudogene 2) came out at: robust z-score, replicate 1 = 0.327; robust z-score, replicate 2 = 0.0706; robust z-score, replicate 3 = 0.102. After knock-down of ATP1A4 (ATPase Na+/K+ transporting subunit alpha 4), the record shows robust z-score, replicate 1 = -0.979; robust z-score, replicate 2 = -0.108; robust z-score, replicate 3 = -1.32. With knock-down of UBE2K (ubiquitin conjugating enzyme E2 K) the results were robust z-score, replicate 1 = 0.0302; robust z-score, replicate 2 = 1.52; robust z-score, replicate 3 = 0.341. Depletion of ADORA1 (adenosine A1 receptor) came out at: robust z-score, replicate 1 = -0.552; robust z-score, replicate 2 = -1.13; robust z-score, replicate 3 = -1.09. Knock-down of SRRM2 (serine/arginine repetitive matrix 2) came out at: robust z-score, replicate 1 = 0.682; robust z-score, replicate 2 = -1.97; robust z-score, replicate 3 = 0.61.

Silencing of OR7A17 (olfactory receptor family 7 subfamily A member 17) gave: robust z-score, replicate 1 = -0.938; robust z-score, replicate 2 = -0.305; robust z-score, replicate 3 = -0.78. Depletion of CIMAP1A (ciliary microtubule associated protein 1A) resulted in: robust z-score, replicate 1 = -0.571; robust z-score, replicate 2 = 0.234; robust z-score, replicate 3 = -0.453. TSHZ1 (teashirt zinc finger homeobox 1) scored robust z-score, replicate 1 = 0.628; robust z-score, replicate 2 = 0.747; robust z-score, replicate 3 = 0.199.

Limited to “robust z-score, replicate 3”, for 2 of the entries above:
LOC389162 (retired record)	1.63
MINDY3 (MINDY lysine 48 deubiquitinase 3)	-0.347

Additional records follow:
Silencing of ERFL (ETS repressor factor like) gave: robust z-score, replicate 1 = -0.938; robust z-score, replicate 2 = -0.834; robust z-score, replicate 3 = -0.994. For IVL (involucrin), the entry reads robust z-score, replicate 1 = -1.8; robust z-score, replicate 2 = -2.35; robust z-score, replicate 3 = -1.86. APOA2 (apolipoprotein A2) scored robust z-score, replicate 1 = 1.86; robust z-score, replicate 2 = 2.69; robust z-score, replicate 3 = 1.25. Against TAS2R7 (taste 2 receptor member 7), the entry reads robust z-score, replicate 1 = -1.37; robust z-score, replicate 2 = -2.21; robust z-score, replicate 3 = -0.671. Depletion of FAM181B (family with sequence similarity 181 member B) resulted in: robust z-score, replicate 1 = -0.797; robust z-score, replicate 2 = -0.719; robust z-score, replicate 3 = -0.816. Against C19orf73 (chromosome 19 open reading frame 73), the entry reads robust z-score, replicate 1 = -1.07; robust z-score, replicate 2 = -1.37; robust z-score, replicate 3 = -0.19.

After knock-down of LOC390256 (retired record), the screen gave robust z-score, replicate 1 = 0.404; robust z-score, replicate 2 = 0.268; robust z-score, replicate 3 = 0.404. With knock-down of DPP9 (dipeptidyl peptidase 9), the record shows robust z-score, replicate 1 = 2.24 (active); robust z-score, replicate 2 = 1.91; robust z-score, replicate 3 = 1.78. Against MICA (MHC class I polypeptide-related sequence A), the values are robust z-score, replicate 1 = -1.2; robust z-score, replicate 2 = -0.996; robust z-score, replicate 3 = -1.12.
